{"source": "patent US20210113501A1", "about": "“METHOD OF ADMINISTERING BETA-HYDROXY-BETA-METHYLBUTYRATE (HMB)” (Metabolic Technologies, Inc., priority 2009, published 2021)", "key": {"[1]": {"test": "Study 2 hematology", "assay_type": "in vivo, human", "details": "Before", "protocol": "Study 2 design. Study 2 was conducted similar to study 1 with the following modifications. In study 2, plasma levels of HMB were measured for 1440 min (24 h) and total urine collection was also performed for measurement of urinary HMB excretion during this period. After the 180 min blood sample, the subjects were allowed to leave the laboratory and were instructed to return to the laboratory for additional blood samples at 360, 720, and 1440 min after the ingestion of the supplement. As in study 1, each subject took each of the treatments with at least a one week washout period between treatments. Samples were again stored frozen at −70° C. for analysis of plasma and urinary HMB concentrations. Pre-ingestion, 180 min and 1440 min blood samples were again assayed for the same measurements already for study 1. Subjects were provided with a standardized lunch after the 180 min blood sampling and instructed to eat this at approximately 240 min post ingestion. Following the 720 min blood sample, subjects were instructed to eat a normal evening meal before 10 pm. […] Urine volumes were measured and samples of the total urine collection were taken and stored frozen at −70° C. until analyzed for HMB.\nThe data were analyzed using a crossover design with Proc GLM in SAS. […] Statistical significance was determined for p<0.05 and a trend was determined for 0.05<p<0.10."}, "[2]": {"details": "gelatin capsule; cited from earlier work"}}, "note": "At least one compound was matched to its structure with a doubt left."}
{"smiles": "CC(C)(O)CC(=O)[O-].CC(C)(O)CC(=O)[O-].[Ca+2]", "note": "[CaHMB, calcium β-hydroxy-β-methylbutryate, reference compound]", "values": [{"measurement": "WBC", "setting": "[1]", "value": "7.3 ± 0±.3 ×10^3/μL"}, {"measurement": "dissolution time in the gut", "setting": "[2]", "value": "10 and 15"}]}
